Results are given in words; binding and its absence hold for the method and conditions named. In cells and extracts the contact can be indirect. Sequences can lack the tags named with a protein.
Molecular target: T1, Fkh2-YFP (C. albicans) (UniProt Q5A7S7)
T1 sequence: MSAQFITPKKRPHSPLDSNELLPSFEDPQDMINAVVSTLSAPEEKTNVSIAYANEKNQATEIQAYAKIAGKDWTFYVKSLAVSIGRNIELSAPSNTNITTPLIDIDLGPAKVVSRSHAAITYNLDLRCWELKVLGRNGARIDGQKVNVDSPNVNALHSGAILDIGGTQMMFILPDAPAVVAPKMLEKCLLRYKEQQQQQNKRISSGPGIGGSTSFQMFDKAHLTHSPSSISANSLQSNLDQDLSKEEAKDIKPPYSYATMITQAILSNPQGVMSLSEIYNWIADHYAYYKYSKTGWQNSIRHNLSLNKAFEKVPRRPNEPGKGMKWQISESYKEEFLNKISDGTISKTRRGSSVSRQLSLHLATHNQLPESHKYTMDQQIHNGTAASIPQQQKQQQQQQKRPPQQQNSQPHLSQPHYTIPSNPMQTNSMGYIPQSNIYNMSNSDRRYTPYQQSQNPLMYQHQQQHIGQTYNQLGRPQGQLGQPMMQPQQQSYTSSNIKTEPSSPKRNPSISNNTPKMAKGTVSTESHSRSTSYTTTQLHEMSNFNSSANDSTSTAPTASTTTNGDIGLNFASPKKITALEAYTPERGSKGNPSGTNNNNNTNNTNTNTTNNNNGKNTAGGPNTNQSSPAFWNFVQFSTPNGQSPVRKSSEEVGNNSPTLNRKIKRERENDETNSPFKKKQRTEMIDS
Assay: co-IP; Fkh2-YFP/GFP precipitated with anti-GFP antibody on protein-G Dynabeads from 2 mg total protein, 40 min post hyphal induction; washed twice with lysis buffer containing 150 mM NaCl; anti-HA blot; control strain expressing only the HA-tagged protein

Srp1-HA (C. albicans)
binding: no binding

— PMC4305328
